This assay has as its target LetAΔZnR^C (E. coli) (UniProt P0AD03). Put plainly: pull-down.

By UniProt entry, the sequences of proteins in these tests, tags left out. Where a name states a change or a piece, a line headed by the entry shows the natural chain unless it says otherwise.
UniProt P0AD03: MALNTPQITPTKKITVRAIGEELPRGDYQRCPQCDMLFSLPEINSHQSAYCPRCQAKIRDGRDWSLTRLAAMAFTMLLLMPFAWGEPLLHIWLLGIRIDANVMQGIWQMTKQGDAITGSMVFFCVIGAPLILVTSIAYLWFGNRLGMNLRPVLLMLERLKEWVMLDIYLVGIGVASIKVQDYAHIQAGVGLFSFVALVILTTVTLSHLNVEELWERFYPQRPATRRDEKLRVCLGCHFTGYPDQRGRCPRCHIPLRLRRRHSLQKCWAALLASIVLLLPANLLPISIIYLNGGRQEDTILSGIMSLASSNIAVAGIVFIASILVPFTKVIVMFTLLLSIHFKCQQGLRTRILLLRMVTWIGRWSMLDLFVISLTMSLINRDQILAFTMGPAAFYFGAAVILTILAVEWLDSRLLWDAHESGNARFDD

This note sets out measurements from publication doi:10.1101/2025.03.21.644421 (bioRxiv, 2025).

These are yes or no findings as the source states them, for the method shown. In cells and extracts the contact can be indirect. Binding can be weak; no strength is given. Where a sequence is shown, tags or fusion partners need not be part of it.

B1: LetB (Lipophilic Envelope-spanning Tunnel B), untagged (natural protein, E. coli, UniProt P76272 1-877, looked up)
chain: MSQETPASTTEAQIKNKRRISPFWLLPFIALMIASWLIWDSYQDRGNTVTIDFMSADGIVPGRTPVRYQGVEVGTVQDISLSDDLRKIEVKVSIKSDMKDALREETQFWLVTPKASLAGVSGLDALVGGNYIGMMPGKGKEQDHFVALDTQPKYRLDNGDLMIHLQAPDLGSLNSGSLVYFRKIPVGKVYDYAINPNKQGVVIDVLIERRFTDLVKKGSRFWNVSGVDANVSISGAKVKLESLAALVNGAIAFDSPEESKPAEAEDTFGLYEDLAHSQRGVIIKLELPSGAGLTADSTPLMYQGLEVGQLTKLDLNPGGKVTGEMTVDPSVVTLLRENTRIELRNPKLSLSDANLSALLTGKTFELVPGDGEPRKEFVVVPGEKALLHEPDVLTLTLTAPESYGIDAGQPLILHGVQVGQVIDRKLTSKGVTFTVAIEPQHRELVKGDSKFVVNSRVDVKVGLDGVEFLGASASEWINGGIRILPGDKGEMKASYPLYANLEKALENSLSDLPTTTVSLSAETLPDVQAGSVVLYRKFEVGEVITVRPRANAFDIDLHIKPEYRNLLTSNSVFWAEGGAKVQLNGSGLTVQASPLSRALKGAISFDNLSGASASQRKGDKRILYASETAARAVGGQITLHAFDAGKLAVGMPIRYLGIDIGQIQTLDLITARNEVQAKAVLYPEYVQTFARGGTRFSVVTPQISAAGVEHLDTILQPYINVEPGRGNPRRDFELQEATITDSRYLDGLSIIVEAPEAGSLGIGTPVLFRGLEVGTVTGMTLGTLSDRVMIAMRISKRYQHLVRNNSVFWLASGYSLDFGLTGGVVKTGTFNQFIRGGIAFATPPGTPLAPKAQEGKHFLLQESEPKEWREWGTALPK
Turning to B1, the binding entry is given as “binds”.
